Assay results from article doi:10.1101/2021.09.29.462331.
Results are given in words; binding and its absence hold for the method and conditions named. Binding seen in cells or lysates may run through a third protein. Some results given as binding are weak or reduced against the parent protein; the word gives no strength. Tags and fused reporters may be left off the sequences shown.

Target: T1, Myc-tagged KIF4 (wild type) (human) (UniProt O95239)
T1 sequence: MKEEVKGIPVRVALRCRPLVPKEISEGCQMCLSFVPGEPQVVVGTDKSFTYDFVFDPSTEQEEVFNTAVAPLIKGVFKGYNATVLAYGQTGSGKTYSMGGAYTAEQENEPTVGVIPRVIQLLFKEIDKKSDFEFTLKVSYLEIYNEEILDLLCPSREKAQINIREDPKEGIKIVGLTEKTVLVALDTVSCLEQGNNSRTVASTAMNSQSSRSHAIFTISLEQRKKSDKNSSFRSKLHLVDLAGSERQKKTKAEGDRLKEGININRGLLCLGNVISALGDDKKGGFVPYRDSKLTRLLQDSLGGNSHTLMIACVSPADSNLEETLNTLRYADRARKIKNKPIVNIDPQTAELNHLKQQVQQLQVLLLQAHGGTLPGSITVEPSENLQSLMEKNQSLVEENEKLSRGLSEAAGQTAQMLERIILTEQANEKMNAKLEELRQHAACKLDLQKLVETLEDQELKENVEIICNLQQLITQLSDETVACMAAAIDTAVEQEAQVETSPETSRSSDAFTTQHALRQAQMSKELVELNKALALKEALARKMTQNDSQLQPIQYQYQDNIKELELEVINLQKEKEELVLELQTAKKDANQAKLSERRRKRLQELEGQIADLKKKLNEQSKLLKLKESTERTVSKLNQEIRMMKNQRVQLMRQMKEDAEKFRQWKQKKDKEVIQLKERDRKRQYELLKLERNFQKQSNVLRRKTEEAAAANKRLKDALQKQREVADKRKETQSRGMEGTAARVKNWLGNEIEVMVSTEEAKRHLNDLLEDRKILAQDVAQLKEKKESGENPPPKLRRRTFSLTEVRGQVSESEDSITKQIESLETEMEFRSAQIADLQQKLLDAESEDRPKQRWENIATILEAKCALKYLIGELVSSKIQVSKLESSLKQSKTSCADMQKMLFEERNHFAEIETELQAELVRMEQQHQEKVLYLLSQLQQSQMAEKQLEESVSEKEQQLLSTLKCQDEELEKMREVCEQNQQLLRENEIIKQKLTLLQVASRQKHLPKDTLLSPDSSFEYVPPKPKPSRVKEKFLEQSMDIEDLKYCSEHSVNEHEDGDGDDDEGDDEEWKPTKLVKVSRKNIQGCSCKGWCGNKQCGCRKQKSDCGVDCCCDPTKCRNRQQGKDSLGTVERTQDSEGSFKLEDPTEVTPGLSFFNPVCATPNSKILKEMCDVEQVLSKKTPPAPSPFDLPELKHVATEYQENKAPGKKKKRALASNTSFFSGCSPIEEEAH
Assay: co-IP

B1: HA-tagged NTCP (receptor, UniProt Q14973 1-349)
chain: MEAHNASAPFNFTLPPNFGKRPTDLALSVILVFMLFFIMLSLGCTMEFSKIKAHLWKPKGLAIALVAQYGIMPLTAFVLGKVFRLKNIEALAILVCGCSPGGNLSNVFSLAMKGDMNLSIVMTTCSTFCALGMMPLLLYIYSRGIYDGDLKDKVPYKGIVISLVLVLIPCTIGIVLKSKRPQYMRYVIKGGMIIILLCSVAVTVLSAINVGKSIMFAMTPLLIATSSLMPFIGFLLGYVLSALFCLNGRCRRTVSMETGCQNVQLCSTILNVAFPPEVIGPLFFFPLLYMIFQLGEGLLLIAIFWCYEKFKTPKDKTKMIYTAATTEETIPGALGNGTYKGEDCSPCTA
  binding: binds
